## Results of single-concentration screens

The chains behind the UniProt entries cited, without tags or fusion partners. Residues count along the entry.
UniProt P9WFT3, whole entry: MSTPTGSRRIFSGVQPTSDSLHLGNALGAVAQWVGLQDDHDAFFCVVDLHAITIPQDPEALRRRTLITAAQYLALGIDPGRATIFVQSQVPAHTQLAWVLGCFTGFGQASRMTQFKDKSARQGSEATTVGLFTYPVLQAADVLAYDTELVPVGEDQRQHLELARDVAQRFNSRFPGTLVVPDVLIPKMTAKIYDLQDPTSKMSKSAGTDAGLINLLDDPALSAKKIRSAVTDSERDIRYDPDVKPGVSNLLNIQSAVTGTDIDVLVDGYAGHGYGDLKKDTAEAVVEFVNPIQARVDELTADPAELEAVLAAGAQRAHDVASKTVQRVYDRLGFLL
UniProt P9WNZ1, whole entry: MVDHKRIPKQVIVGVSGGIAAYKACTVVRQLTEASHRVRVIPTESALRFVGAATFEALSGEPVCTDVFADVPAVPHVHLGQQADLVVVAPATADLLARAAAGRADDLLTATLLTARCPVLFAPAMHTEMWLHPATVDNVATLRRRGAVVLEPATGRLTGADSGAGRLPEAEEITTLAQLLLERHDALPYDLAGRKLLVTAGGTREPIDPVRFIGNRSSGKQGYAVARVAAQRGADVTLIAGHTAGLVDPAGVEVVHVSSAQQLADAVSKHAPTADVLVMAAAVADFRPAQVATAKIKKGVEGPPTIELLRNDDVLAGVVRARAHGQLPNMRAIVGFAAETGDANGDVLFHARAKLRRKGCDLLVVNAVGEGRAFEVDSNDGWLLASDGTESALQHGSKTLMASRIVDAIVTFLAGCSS
UniProt A4I591, 1-473: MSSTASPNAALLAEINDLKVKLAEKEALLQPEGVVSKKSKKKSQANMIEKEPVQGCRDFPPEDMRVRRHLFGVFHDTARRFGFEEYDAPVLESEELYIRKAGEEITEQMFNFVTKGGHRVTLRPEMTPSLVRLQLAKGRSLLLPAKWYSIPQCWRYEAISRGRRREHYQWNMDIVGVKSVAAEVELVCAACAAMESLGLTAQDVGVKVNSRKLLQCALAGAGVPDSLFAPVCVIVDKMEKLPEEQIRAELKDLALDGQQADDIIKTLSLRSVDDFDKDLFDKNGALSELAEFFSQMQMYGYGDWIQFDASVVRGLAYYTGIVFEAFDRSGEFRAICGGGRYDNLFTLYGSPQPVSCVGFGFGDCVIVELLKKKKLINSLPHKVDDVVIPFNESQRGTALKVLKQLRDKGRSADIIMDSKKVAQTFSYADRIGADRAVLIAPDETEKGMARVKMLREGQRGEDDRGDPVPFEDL
UniProt I6X8D2, whole entry: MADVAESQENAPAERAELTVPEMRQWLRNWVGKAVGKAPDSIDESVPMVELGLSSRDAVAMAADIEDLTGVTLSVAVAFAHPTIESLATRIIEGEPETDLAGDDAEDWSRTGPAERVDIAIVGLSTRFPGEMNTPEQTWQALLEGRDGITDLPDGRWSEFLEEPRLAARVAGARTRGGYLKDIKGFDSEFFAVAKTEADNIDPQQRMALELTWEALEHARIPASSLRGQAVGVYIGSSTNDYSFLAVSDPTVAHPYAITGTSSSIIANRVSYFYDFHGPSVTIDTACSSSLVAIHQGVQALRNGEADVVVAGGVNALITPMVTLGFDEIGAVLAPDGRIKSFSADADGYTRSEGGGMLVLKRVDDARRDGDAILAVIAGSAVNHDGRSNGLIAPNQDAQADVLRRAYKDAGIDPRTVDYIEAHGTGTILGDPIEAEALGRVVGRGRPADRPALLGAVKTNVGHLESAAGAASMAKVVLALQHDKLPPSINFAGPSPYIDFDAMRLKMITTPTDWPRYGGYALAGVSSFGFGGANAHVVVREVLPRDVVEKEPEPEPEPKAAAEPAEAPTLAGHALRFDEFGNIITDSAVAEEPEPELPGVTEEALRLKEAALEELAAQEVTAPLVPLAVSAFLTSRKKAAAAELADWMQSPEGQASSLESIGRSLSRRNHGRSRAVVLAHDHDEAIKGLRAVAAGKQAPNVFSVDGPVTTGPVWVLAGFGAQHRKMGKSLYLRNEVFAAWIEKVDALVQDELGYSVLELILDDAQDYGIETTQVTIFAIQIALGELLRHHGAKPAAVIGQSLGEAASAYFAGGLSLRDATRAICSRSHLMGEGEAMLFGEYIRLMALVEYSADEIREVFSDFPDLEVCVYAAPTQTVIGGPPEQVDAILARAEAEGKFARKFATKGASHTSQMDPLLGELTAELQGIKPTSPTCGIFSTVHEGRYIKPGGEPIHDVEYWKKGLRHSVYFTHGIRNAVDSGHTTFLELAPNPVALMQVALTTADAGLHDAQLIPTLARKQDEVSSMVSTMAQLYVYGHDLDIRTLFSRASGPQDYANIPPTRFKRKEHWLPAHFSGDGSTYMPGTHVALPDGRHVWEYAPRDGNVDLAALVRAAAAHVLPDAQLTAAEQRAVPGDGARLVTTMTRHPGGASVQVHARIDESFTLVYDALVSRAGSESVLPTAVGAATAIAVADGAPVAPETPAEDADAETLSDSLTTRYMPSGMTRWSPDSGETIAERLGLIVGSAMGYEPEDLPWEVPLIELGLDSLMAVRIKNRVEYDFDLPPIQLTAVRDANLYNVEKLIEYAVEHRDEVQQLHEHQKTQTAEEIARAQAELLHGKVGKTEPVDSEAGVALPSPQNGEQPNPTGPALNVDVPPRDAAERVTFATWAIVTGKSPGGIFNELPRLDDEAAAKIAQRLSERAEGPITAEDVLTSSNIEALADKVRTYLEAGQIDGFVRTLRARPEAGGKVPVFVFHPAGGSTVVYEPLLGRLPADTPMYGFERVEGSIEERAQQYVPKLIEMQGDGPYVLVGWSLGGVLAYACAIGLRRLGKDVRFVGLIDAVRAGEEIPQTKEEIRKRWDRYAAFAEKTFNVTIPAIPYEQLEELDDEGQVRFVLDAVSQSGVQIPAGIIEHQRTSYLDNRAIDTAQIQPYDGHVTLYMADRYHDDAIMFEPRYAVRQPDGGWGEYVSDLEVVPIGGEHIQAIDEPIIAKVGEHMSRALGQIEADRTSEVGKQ

MtTrpRS: 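Enzyme assay of tryptophanyl-tRNA synthetase; the read-out is not stated. Target: Tryptophan-tRNA ligase, Mycobacterium tuberculosis (UniProt P9WFT3). Compounds at 10 µM. Direction is not recorded; retested compounds ran higher, which suggests that high means inhibition. About 65,000 compounds were tested under these conditions; 0.098% (about 64) showed 50% or more at least once.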
CoaBC: 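Coenzyme A biosynthesis protein CoaBC, Mycobacterium tuberculosis (UniProt P9WNZ1). Enzyme assay of CoaBC with a phosphate dye (Biomol Green) read at 650 nm. Concentration: 30 µM. Higher reads as stronger inhibition, judged from the few compounds that gave an IC50. Most strong results did not repeat in a second test. About 67,000 compounds were tested under these conditions; 0.06% (about 40) showed 50% or more at least once.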
LiHisRS: 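Histidine-tRNA ligase, Leishmania infantum (UniProt A4I591). Enzyme assay of histidyl-tRNA synthetase; the read-out is not stated. Compounds at 30 µM. The record gives no direction; compounds that gave an IC50 in retests scored well above the rest, so higher reads as stronger inhibition. The assay is labelled LdHisRS but filed under L. infantum. About 69,000 compounds were tested under these conditions; 0.6% (about 410) showed 50% or more at least once.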
Pks13 thioesterase: 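Enzyme assay of the thioesterase domain of polyketide synthase 13; the read-out is not stated. Target: Polyketide synthase Pks13, Mycobacterium tuberculosis (UniProt I6X8D2). Compounds at 30 µM. The record gives no direction; the compounds picked for IC50 retests had high values, so higher reads as stronger inhibition. About 67,000 compounds were tested under these conditions; 0.46% (about 300) showed 50% or more at least once.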

The filed quantity is “Percent Effect” (%).
The controls that fix the scale are not given in the record; negative values are as filed.
The compounds are a random part of those screened.

* CC(C)n1ccnc1Cn1ccc2ncccc2c1=O | MtTrpRS: 1.255%; CoaBC: 1.942%; LiHisRS: 45.78%; Pks13 thioesterase: -17.37%
* CCC(=O)N1CCC(NC2CCSCC2)C1 (centres unmarked) | MtTrpRS: 2.207%; CoaBC: 1.22%; LiHisRS: 3.333%; Pks13 thioesterase: -14.19%
* CN(Cc1ccco1)c1ccc(C(=O)NCCCc2ccccn2)cn1 | MtTrpRS: -2.328%; CoaBC: 5.835%; LiHisRS: 20.51%; Pks13 thioesterase: -17.07%
* Cc1ccc(S(=O)(=O)NCC(C)(C)N)c(F)c1 | MtTrpRS: 0.7199%; CoaBC: 4.126%; LiHisRS: 7.143%; Pks13 thioesterase: -11.48%
* COCCN1CCC2(CC1)CN(Cc1cccc(C)n1)C(=O)CO2 | MtTrpRS: -2.813%; CoaBC: -9.63%; LiHisRS: 9.722%; Pks13 thioesterase: -14.16%
* COc1ccc(Cl)c(-c2noc3ncn(CCC(=O)O)c(=O)c23)c1 | MtTrpRS: 1.977%; CoaBC: 4.051%; LiHisRS: 10.53%; Pks13 thioesterase: -0.609%
* Cc1c(CS(C)(=O)=O)cccc1NC(=O)CC1CCCC1 | MtTrpRS: -3.505%; CoaBC: 1.266%; LiHisRS: 11.69%; Pks13 thioesterase: -17.45%
* COc1ccccc1CNC(=O)c1[nH]ncc1Cl | MtTrpRS: 2.801%; CoaBC: 0.5102%; LiHisRS: 3.704%; Pks13 thioesterase: -8.326%
* NC(=O)CN(Cc1ncc(-c2ccc(F)cc2)o1)C1CCCC1 | MtTrpRS: -0.3068%; CoaBC: 4.204%; LiHisRS: 7.254%; Pks13 thioesterase: -42.53%
* CC1CCN(C[C@H]2CN3CC[C@H]2C[C@@H]3CNC(=O)c2ccco2)CC1 | MtTrpRS: 2.049%; CoaBC: -15.23%; LiHisRS: -6.757%; Pks13 thioesterase: 16.44%
* CCc1ccc2nc(C)cc(C(=O)N[C@@H]3CNC[C@H]3O)c2c1 | MtTrpRS: -3.043%; CoaBC: 4.785%; LiHisRS: 11.76%; Pks13 thioesterase: -9.825%
* CCC(=O)N1CCCC1c1nccnc1Nc1nc(C)cc(C)n1 (centres unmarked) | MtTrpRS: 1.583%; CoaBC: 2.487%; LiHisRS: 14.29%; Pks13 thioesterase: -11.76%
* CNc1nc(C(=O)N2CCC3(CCCN(CCOC)C3=O)C2)cs1 (centres unmarked) | MtTrpRS: 2.408%; CoaBC: 1.463%; LiHisRS: 14.4%
* O=C(O)c1ccc(CN2CCCC(Cc3ccn[nH]3)C2)cc1 (centres unmarked) | MtTrpRS: -4.167%; CoaBC: 0.2392%; LiHisRS: 5.755%; Pks13 thioesterase: 1.968%
* COCC(=O)NC[C@H]1C[C@@H]2CCN1C[C@@H]2c1cc(-c2cccs2)nn1C | MtTrpRS: -1.754%; CoaBC: -26.52%; LiHisRS: 13.51%; Pks13 thioesterase: -3.997%
* Cn1c2c(c(=O)n1C)CN(C(=O)c1cccc(F)c1)CCC2 | CoaBC: 3.837%; LiHisRS: 1.98%; Pks13 thioesterase: -14.84%
* CN(Cc1cnn(C)c1)C(=O)NCCc1ccc2c(c1)OCCO2 | MtTrpRS: 2.612%; CoaBC: 8.593%; LiHisRS: 3.67%; Pks13 thioesterase: -5.492%
* CNS(=O)(=O)CC(=O)N1CCC(c2ccc(F)c(F)c2)CC1 | MtTrpRS: 0.8738%; CoaBC: 3.828%; LiHisRS: 11.67%; Pks13 thioesterase: -35.23%
* CCCN1CCN(Cc2cccc(OCC(N)=O)c2)[C@H]2CS(=O)(=O)C[C@H]21 | MtTrpRS: -0.552%; CoaBC: 2.133%; LiHisRS: 13.56%; Pks13 thioesterase: 0.7516%
* O=C1N(CC2CCC2)CCCC12CCN(S(=O)(=O)c1cccnc1)C2 (centres unmarked) | MtTrpRS: -2.785%; CoaBC: 4.119%; LiHisRS: 26.76%; Pks13 thioesterase: -36.52%
* Cc1ccccc1C1(CN)CCOCC1 | MtTrpRS: 1.852%; CoaBC: -3.676%; LiHisRS: 8.889%; Pks13 thioesterase: -7.139%
* CN(C)Cc1nnc(C2CCCN(c3nccc4ccccc34)C2)n1C (centres unmarked) | MtTrpRS: 3.763%; CoaBC: 7.578%; LiHisRS: 10.83%; Pks13 thioesterase: -8.972%
* O=C(CCNC(=O)c1ccoc1)NCc1ccccc1F | MtTrpRS: -0.3909%; CoaBC: 5.385%; LiHisRS: 13.33%; Pks13 thioesterase: -13.81%
* CC1CN(CC(=O)NC2CCCC2)CCN1c1ccc2nncn2n1 (centres unmarked) | MtTrpRS: 0.2227%; CoaBC: 0%; LiHisRS: 17.02%; Pks13 thioesterase: -5.14%
* COc1ccc(-n2c(SCC(=O)O)nnc2-c2cn[nH]c2)cc1 | MtTrpRS: -2.624%; CoaBC: 2.621%; LiHisRS: 12.12%; Pks13 thioesterase: -8.811%
* Cn1cc(C(=O)NCCCN2CCCCCC2=O)c(-c2cccnc2)n1 | MtTrpRS: -5.997%; CoaBC: -4.43%; LiHisRS: 6.494%; Pks13 thioesterase: -13.8%
* Cc1ccnc(C(Nc2nccc(-c3ccc(C)nc3C)n2)C2CC2)c1 (centres unmarked) | MtTrpRS: 1.098%; CoaBC: 6.579%; LiHisRS: 16.39%; Pks13 thioesterase: -15.02%
* CCCNC(=O)C1CCCN(Cc2csc(C(C)(C)C)n2)C1 (centres unmarked) | MtTrpRS: 4.011%; CoaBC: -4.199%; LiHisRS: 10.17%; Pks13 thioesterase: -25.35%
* Cc1n[nH]c(C)c1NC(=O)CN1CCc2c(nc(C(C)C)n2C)C1 | MtTrpRS: 6.144%; CoaBC: -0.6889%; LiHisRS: 8.163%; Pks13 thioesterase: -14.62%
* Cc1n[nH]c(C)c1C1CCCN1C(=O)NCC(=O)NC(C)(C)C (centres unmarked) | MtTrpRS: 1.069%; CoaBC: 0.6397%; LiHisRS: 7.692%; Pks13 thioesterase: -9.517%
* Cc1nc(C)n(CC2CCCN2Cc2cccc3c2OCCO3)n1 (centres unmarked) | MtTrpRS: -3.948%; CoaBC: 6.91%; LiHisRS: 14.91%; Pks13 thioesterase: -13.1%

Some entries from above, unchanged:

| SMILES | MtTrpRS | CoaBC | LiHisRS | Pks13 thioesterase |
|---|---|---|---|---|
| `CN(Cc1cnn(C)c1)C(=O)NCCc1ccc2c(c1)OCCO2` | 2.612% | 8.593% | 3.67% | -5.492% |
| `Cc1nc(C)n(CC2CCCN2Cc2cccc3c2OCCO3)n1` (centres unmarked) | -3.948% | 6.91% | 14.91% | -13.1% |
| `O=C(O)c1ccc(CN2CCCC(Cc3ccn[nH]3)C2)cc1` (centres unmarked) | -4.167% | 0.2392% | 5.755% | 1.968% |
| `CN(C)Cc1nnc(C2CCCN(c3nccc4ccccc34)C2)n1C` (centres unmarked) | 3.763% | 7.578% | 10.83% | -8.972% |

The values are deposited in ChEMBL (CHEMBL3988442, “University of Dundee, Small-Polar-MMV Screening Library” (2021)).